Experimental data: PubChem BioAssay AID504764 (Drosophila RNAi Screening Center, 2011)
Screen: 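Genome-wide screen for regulators of Notch-driven gene expression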 (primary screen). System: Drosophila Kc167 cells. Knock-down reagent: long dsRNA against Drosophila genes. Timing: about 5 days (4 days dsRNA, then 24 h after transfection). Challenge: transfection of constitutively active membrane-tethered Notch lacking the extracellular domain, read 24 h later. Detection: 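Light from a Notch-responsive E(spl)m3 luciferase reporter under active Notch, with control-promoter and no-Notch reporter wells to normalise; raw counts from paired wells a and b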. Scale: induced reporter light, run 1, well a and induced reporter light, run 1, well b: higher = more light from the Notch target reporter with active Notch; control promoter light, run 1, well a and control promoter light, run 1, well b: higher = more light from the viral control promoter (cell number, transfection, viability); uninduced reporter light, run 1, well a: higher = more light from the Notch target reporter without active Notch. Call rule: 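Hit if the duplicate-averaged log2 ratio of induced to control-promoter light gives a plate-wise z beyond ±2, or induced to uninduced beyond ±1.8; weak-control or discordant-duplicate wells dropped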. Calls: active = modifier hit (raised or lowered Notch signal); inactive = not a hit.
In all, the deposit lists about 22,000 reagents; shown is a random part of those that have a named target and a result. Of all reagents, 403 (1.9%) were called active. 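Unnormalised raw counts per well; ratio z-scores behind the hit calls and whether each hit raises or lowers signal are not deposited.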 Not given: the amount of reagent.

| target gene | DRSC id | induced reporter light, run 1, well a | induced reporter light, run 1, well b | control promoter light, run 1, well a | control promoter light, run 1, well b | uninduced reporter light, run 1, well a | outcome |
| --- | --- | --- | --- | --- | --- | --- | --- |
| CG10147 | DRSC09706 | 2.48e5 | 2.68e5 | 3.88e5 | 2.84e5 | 14920 | inactive |
| Phf7 (PHD finger protein 7) | DRSC20692 | 1.40e5 | 1.42e5 | 1.28e5 | 87455 | 12330 | inactive |
| CG1307 | DRSC12492 | 91885 | 1.18e5 | 69085 | 71365 | 7540 | inactive |
| Hexo2 (Hexosaminidase 2) | DRSC18671 | 1.39e5 | 1.47e5 | 2.34e5 | 2.36e5 | 11325 | inactive |
| sif (still life) | DRSC08759 | 1.57e5 | 1.89e5 | 1.19e5 | 1.19e5 | 12645 | inactive |
| sif (still life) | DRSC11395 | 3.27e5 | 3.69e5 | 3.55e5 | 2.74e5 | 16350 | inactive |
| CG3734 | DRSC15509 | 1.92e5 | 1.61e5 | 2.27e5 | 2.21e5 | 14730 | inactive |
| CG6066 | DRSC15959 | 1.16e5 | 1.49e5 | 1.87e5 | 1.74e5 | 10728 | inactive |
| CG31937 | DRSC00514 | 1.04e5 | 1.17e5 | 1.23e5 | 1.15e5 | 8365 | inactive |
| BBS4 (Bardet-Biedl syndrome 4) | DRSC06352 | 2.41e5 | 1.75e5 | 3.43e5 | 3.32e5 | 15505 | inactive |
| Sec3 (Secretory 3) | DRSC10384 | 1.38e5 | 1.26e5 | 89955 | 92695 | 10350 | inactive |
| CG6701 | DRSC07007 | 1.64e5 | 1.91e5 | 1.82e5 | 1.83e5 | 12945 | inactive |
| wdb (widerborst) | DRSC14163 | 1.67e5 | 1.26e5 | 1.66e5 | 1.83e5 | 11542 | inactive |
| Wdr59 (WD repeat domain 59) | DRSC02771 | 2.47e5 | 2.10e5 | 1.82e5 | 1.98e5 | 17060 | inactive |
| CG4267 | DRSC00647 | 1.02e5 | 1.09e5 | 88425 | 44525 | 9100 | inactive |
| CREG (Cellular Repressor of E1A-stimulated Genes) | DRSC16595 | 1.98e5 | 1.66e5 | 1.66e5 | 1.78e5 | 14515 | inactive |

Reprinted from the entries so far for reference:
| target gene | DRSC id | induced reporter light, run 1, well a | induced reporter light, run 1, well b | control promoter light, run 1, well a | control promoter light, run 1, well b | uninduced reporter light, run 1, well a | outcome |
| --- | --- | --- | --- | --- | --- | --- | --- |
| sif (still life) | DRSC08759 | 1.57e5 | 1.89e5 | 1.19e5 | 1.19e5 | 12645 | inactive |
| sif (still life) | DRSC11395 | 3.27e5 | 3.69e5 | 3.55e5 | 2.74e5 | 16350 | inactive |
| CG3734 | DRSC15509 | 1.92e5 | 1.61e5 | 2.27e5 | 2.21e5 | 14730 | inactive |
| CG6066 | DRSC15959 | 1.16e5 | 1.49e5 | 1.87e5 | 1.74e5 | 10728 | inactive |
| CG31937 | DRSC00514 | 1.04e5 | 1.17e5 | 1.23e5 | 1.15e5 | 8365 | inactive |
| BBS4 (Bardet-Biedl syndrome 4) | DRSC06352 | 2.41e5 | 1.75e5 | 3.43e5 | 3.32e5 | 15505 | inactive |

Further entries follow:
| target gene | DRSC id | induced reporter light, run 1, well a | induced reporter light, run 1, well b | control promoter light, run 1, well a | control promoter light, run 1, well b | uninduced reporter light, run 1, well a | outcome |
| --- | --- | --- | --- | --- | --- | --- | --- |
| CG4036 | DRSC02735 | 1.93e5 | 2.32e5 | 1.93e5 | 1.93e5 | 16155 | inactive |
| CG13494 | DRSC04139 | 45535 | 33365 | 39150 | 31185 | 2060 | inactive |
| CG5039 | DRSC15703 | 1.38e5 | 1.02e5 | 1.92e5 | 1.80e5 | 11160 | inactive |
| CG7387 | DRSC10833 | 1.19e5 | 1.40e5 | 89030 | 60740 | 12778 | inactive |
| cerv (cervantes) | DRSC19681 | 59455 | 54770 | 57940 | 64010 | 9060 | inactive |
| Exo70 (Exocyst 70) | DRSC10774 | 1.48e5 | 1.35e5 | 1.76e5 | 1.37e5 | 4555 | inactive |
| Jheh2 (Juvenile hormone epoxide hydrolase 2) | DRSC06530 | 1.74e5 | 1.46e5 | 1.55e5 | 1.85e5 | 12250 | inactive |
| CG43066 | DRSC06927 | 89675 | 65675 | 95055 | 84340 | 7415 | inactive |
| Est-6 (Esterase 6) | DRSC11162 | 1.62e5 | 1.44e5 | 2.36e5 | 2.44e5 | 8370 | inactive |
| CG15395 | DRSC00409 | 1.02e5 | 1.23e5 | 88775 | 52815 | 8882 | inactive |
| CR42745 (retired record) | DRSC13756 | 1.96e5 | 2.04e5 | 2.18e5 | 2.58e5 | 16325 | inactive |
| CG15483 | DRSC02493 | 1.32e5 | 1.70e5 | 1.43e5 | 1.63e5 | 12515 | inactive |
| Ir56d (Ionotropic receptor 56d) | DRSC06590 | 6750 | 6265 | 9360 | 11395 | 1525 | inactive |
| cyp33 (cyclophilin-33) | DRSC07600 | 1.01e5 | 96735 | 1.82e5 | 2.21e5 | 9675 | inactive |
| Tace | DRSC16340 | 1.72e5 | 1.80e5 | 2.88e5 | 3.02e5 | 15700 | inactive |
| Tmep (Transmembrane endosomal protein) | DRSC08215 | 94355 | 1.01e5 | 1.61e5 | 1.88e5 | 6545 | inactive |
| I-t (inhibitor-t) | DRSC16713 | 1.13e5 | 1.07e5 | 1.06e5 | 71400 | 6370 | inactive |
| DENR (Density regulated protein) | DRSC20151 | 87200 | 1.38e5 | 88045 | 52795 | 9080 | inactive |
| CG9084 | DRSC07335 | 90770 | 1.37e5 | 1.64e5 | 1.65e5 | 13160 | inactive |
| CG34278 | DRSC13208 | 82020 | 1.01e5 | 1.26e5 | 1.55e5 | 7392 | inactive |
| CG11771 | DRSC14379 | 1.48e5 | 1.90e5 | 2.34e5 | 1.90e5 | 14205 | inactive |
| CG42780 | DRSC17514 | 71005 | 64135 | 75055 | 74100 | 6050 | inactive |
| plu (plutonium) | DRSC07665 | 41465 | 36475 | 41305 | 48375 | 4385 | inactive |
| CG6321 | DRSC10623 | 1.16e5 | 1.15e5 | 95170 | 29480 | 9932 | inactive |
| CG4213 | DRSC00641 | 1.28e5 | 1.00e5 | 86545 | 55080 | 8610 | inactive |
| mRpL40 (mitochondrial ribosomal protein L40) | DRSC15749 | 87985 | 93070 | 74700 | 60150 | 6525 | inactive |
| CG30384 | DRSC06032 | 2.05e5 | 2.27e5 | 2.69e5 | 1.97e5 | 18525 | inactive |
| CG6280 | DRSC06972 | 77025 | 83680 | 1.03e5 | 92460 | 6805 | inactive |
| Arfip (Arfaptin) | DRSC15179 | 89270 | 91965 | 71380 | 78280 | 7620 | inactive |
| CG14100 | DRSC10101 | 1.34e5 | 1.16e5 | 1.08e5 | 1.09e5 | 8200 | inactive |
| ATPsynepsilonL (ATP synthase, epsilon subunit-like) | DRSC14548 | 77480 | 1.12e5 | 1.02e5 | 81045 | 2930 | inactive |
| Hus1-like | DRSC12353 | 1.27e5 | 1.32e5 | 1.41e5 | 1.46e5 | 8470 | inactive |
| PIG-N (Phosphatidylinositol glycan anchor biosynthesis class N) | DRSC06837 | 1.83e5 | 1.75e5 | 1.98e5 | 1.73e5 | 15015 | inactive |
| Agps (Alkylglycerone phosphate synthase) | DRSC05984 | 71440 | 77935 | 1.23e5 | 1.04e5 | 5935 | inactive |
